In PubChem BioAssay AID330 (DTP/NCI, 2004):
The list is a part of this screen's results and no random one: it gathers tests that were run many times, whatever their T/C, doses with no T/C, and many T/C values between a quarter and a half above the control. Further doses and runs are listed elsewhere. T/C gives the treated animals as a percentage of the vehicle group. Some doses have a count of surviving animals in place of a T/C: the source files T/C as zero there, which appears to mark a toxic dose or a test without result, not a measured value. Some survivor counts are full or nearly so, which does not show that the dose was tolerated: survival well below the control is almost never listed, so the zero probably covers shortened survival too. Survivors were counted at the toxicity check, usually on the fifth day, unless a day is given; later deaths do not show. Schedules are NCI's codes, read here as Q, the interval in days (D) or hours (H), X, the number of doses. Marks such as (2×) say how often a value occurs here. Some doses were run more than once; their values stand side by side, smallest first. Where survival is the endpoint, this PubChem deposit counts one and a half times the control or more as active, and values a quarter to a half above the control carry no call in these data; other NCI protocols may use other cut-offs.

Test system: P388 leukemia ip, CD2F1 mice, survival T/C
Experiment: NCI In Vivo Anticancer Drug Screen. Data for tumor model P388 Leukemia (intraperitoneal) in CD2F1 (CDF1) mice
Settings: T/C endpoint: median survival time, higher T/C = longer survival
[1] = dose: 240.0 mg/kg/injection, schedule: Q01DX005 (ip), vehicle: saline with Tween-80
[2] = dose: 25.0 mg/kg/injection, schedule: Q01DX009 (ip), vehicle: saline with Tween-80
[3] = dose: 50.0 mg/kg/injection, schedule: Q01DX009 (ip), vehicle: saline with Tween-80
[4] = dose: 100.0 mg/kg/injection, schedule: Q01DX009 (ip), vehicle: saline with Tween-80
[5] = dose: 200.0 mg/kg/injection, schedule: Q01DX009 (ip), vehicle: saline with Tween-80
[6] = dose: 3.12 mg/kg/injection, schedule: Q01DX009 (ip), vehicle: Klucel (hydroxypropylcellulose) (HPC)
[7] = dose: 6.25 mg/kg/injection, schedule: Q01DX009 (ip), vehicle: Klucel (hydroxypropylcellulose) (HPC)
[8] = dose: 12.5 mg/kg/injection, schedule: Q01DX009 (ip), vehicle: Klucel (hydroxypropylcellulose) (HPC)
[9] = dose: 25.0 mg/kg/injection, schedule: Q01DX009 (ip), vehicle: Klucel (hydroxypropylcellulose) (HPC)
[10] = dose: 100.0 mg/kg/injection, schedule: Q01DX005 (ip), vehicle: Klucel (hydroxypropylcellulose) (HPC)
[11] = dose: 200.0 mg/kg/injection, schedule: Q01DX005 (ip), vehicle: Klucel (hydroxypropylcellulose) (HPC)
[12] = dose: 50.0 mg/kg/injection, schedule: Q01DX009 (ip), vehicle: saline
[13] = dose: 100.0 mg/kg/injection, schedule: Q01DX009 (ip), vehicle: saline
[14] = dose: 200.0 mg/kg/injection, schedule: Q01DX009 (ip), vehicle: saline
[15] = dose: 200.0 mg/kg/injection, schedule: Q01DX009 (ip), vehicle: Klucel (hydroxypropylcellulose) (HPC)

For CCOC(=O)N1CCN(C(=S)NNC(C)c2cc3ccccc3cn2)CC1 (stereo not drawn), the survivor count (dose: 25.0 mg/kg/injection, schedule: Q01DX005 (ip), vehicle: saline with Tween-80) was 6 of 6, the survivor count (dose: 50.0 mg/kg/injection, schedule: Q01DX005 (ip), vehicle: saline with Tween-80) was 0 of 6 and the survivor count (dose: 100.0 mg/kg/injection, schedule: Q01DX005 (ip), vehicle: saline with Tween-80) was 0 of 6. The survivor count (dose: 200.0 mg/kg/injection, schedule: Q01DX005 (ip), vehicle: saline with Tween-80) was 0 of 6.
In the case of c1ccc2cc3n[se]nc3cc2c1, the survivor count [1] is reported as 4 of 6.
In the case of Nc1ccc(C(OC(=O)c2cc3ccccc3c(Cc3c(O)c(C(=O)OC(c4ccc(N)cc4)(c4ccc(N)cc4)c4ccc(N)cc4)cc4ccccc34)c2O)(c2ccc(N)cc2)c2ccc(N)cc2)cc1, the T/C (dose: 12.5 mg/kg/injection, schedule: Q01DX009 (ip), vehicle: saline with Tween-80) is reported as 140 % of control, the survivor count [2] is reported as 6 of 6 and the survivor count [3] is reported as 2 of 6. For the same compound, the survivor count [4] was 1 of 6 and the survivor count [5] was 0 of 6.
For COc1c(I)c2c(c(OC)c1OC)-c1ccc(OC)c(=O)cc1C(NC(C)=O)CC2 (stereo not drawn), the T/C (dose: 1.56 mg/kg/injection, schedule: Q01DX009 (ip), vehicle: Klucel (hydroxypropylcellulose) (HPC)) was 135 and 137 % of control, the T/C [6] was 142 and 147 % of control and the T/C [7] was 148 % of control. For the same compound, the survivor count [8] was 5 of 5 and the survivor count [9] was 1 of 5 and 5 of 5.
With C=CC(=O)NC(N)=NC#N the survivor count [10] was 0 of 6 and the survivor count [11] was 0 of 6.
O=c1[nH]c2cc([N+](=O)[O-])ccc2o1 was tested, and the survivor count (dose: 400.0 mg/kg/injection, schedule: Q01DX009 (ip), vehicle: Klucel (hydroxypropylcellulose) (HPC)) was 1 of 6.
In the case of CCc1cccc(NC(=O)SCc2ccccc2)c1, the survivor count [5] is reported as 5 of 6.
With CN(C)CCNc1ccc(O)c2c1C(=O)c1ccccc1C2=O the T/C (dose: 80.0 mg/kg/injection, schedule: Q01DX009 (ip), vehicle: distilled water + Tween-80) was 135 % of control and the survivor count (dose: 320.0 mg/kg/injection, schedule: Q01DX009 (ip), vehicle: distilled water + Tween-80) was 6 of 6.
In the case of COc1ccc(-n2c(C)c(COC(=O)NC(C)C)c(COC(=O)NC(C)C)c2C)cc1, the survivor count (dose: 120.0 mg/kg/injection, schedule: Q01DX005 (ip), vehicle: Klucel (hydroxypropylcellulose) (HPC)) is reported as 6 of 6 and the survivor count (dose: 240.0 mg/kg/injection, schedule: Q01DX005 (ip), vehicle: Klucel (hydroxypropylcellulose) (HPC)) is reported as 3 of 6.
With COCC(=O)c1ccc(Cl)cc1 the survivor count [12] was 4 of 6.
In the case of CN=C(c1ccc(NC(=O)c2cc(C(=O)Nc3ccc(C(=NC)N(C)C)cc3)cc([N+](=O)[O-])c2)cc1)N(C)C, the survivor count (dose: 25.0 mg/kg/injection, schedule: Q01DX005 (ip), vehicle: saline) is reported as 0 of 6, the survivor count (dose: 50.0 mg/kg/injection, schedule: Q01DX005 (ip), vehicle: saline) is reported as 0 of 6 and the survivor count (dose: 100.0 mg/kg/injection, schedule: Q01DX005 (ip), vehicle: saline) is reported as 0 of 6. The survivor count (dose: 200.0 mg/kg/injection, schedule: Q01DX005 (ip), vehicle: saline) was 0 of 6.
In the case of COc1cc2cc[n+]3c(c2cc1OC)-c1c2cc(OC)c(OC)cc2cc[n+]1CC3, the survivor count [3] is reported as 0 of 6.
CC(=O)Nc1nc(NC(C)=O)c(N=O)c(NC(C)=O)n1 was tested, and the T/C [13] was 129 % of control, the survivor count [5] was 0 of 6 and the survivor count [14] was 4 of 6.
With Nc1ccc2[nH]c(=S)[nH]c2c1 the survivor count [3] was 4 of 6 and the survivor count [5] was 4 of 6.
CCCn1c(CC)nc([N+](=O)[O-])c1Sc1ncn[nH]1 was tested, and the T/C (dose: 50.0 mg/kg/injection, schedule: Q01DX005 (ip), vehicle: Klucel (hydroxypropylcellulose) (HPC)) was 127 % of control, the T/C [10] was 126 and 136 % of control and the survivor count [11] was 3 of 5.
In the case of CC1(C)C=C(C(=O)ON2C(=O)CCC2=O)C(C)(C)N1O, the survivor count [15] is reported as 2 of 6.
For COc1ccc(Nc2ncnc3ccccc23)cc1CN(CCCl)CCCl, the survivor count (dose: 400.0 mg/kg/injection, schedule: Q01DX001 (ip), vehicle: Klucel (hydroxypropylcellulose) (HPC)) was 4 of 6.
With Nc1ccc(S(=O)(=O)Nc2nc(-c3ccccc3)cc(-c3ccccc3O)n2)cc1 the survivor count [1] was 6 of 6.
With CC1CCCCN1CCCNC(=O)Nc1ccc(Cc2ccc(NC(=O)NCCCN3CCCCC3C)cc2)cc1 (stereo not drawn) the survivor count [6] was 3 of 6, the survivor count [7] was 1 of 6 and the survivor count [8] was 2 of 6. For the same compound, the survivor count [9] was 0 of 6, the survivor count (dose: 50.0 mg/kg/injection, schedule: Q01DX009 (ip), vehicle: Klucel (hydroxypropylcellulose) (HPC)) was 0 of 6 and the survivor count (dose: 100.0 mg/kg/injection, schedule: Q01DX009 (ip), vehicle: Klucel (hydroxypropylcellulose) (HPC)) was 0 of 6. For the same compound, the survivor count [15] was 0 of 6.
In the case of Cc1ccccc1SSCCN, the survivor count [11] is reported as 0 of 5.
With CCCCCCC(=O)CC(SCCS)c1ccc(Cl)c(Cl)c1 (stereo not drawn) the survivor count [14] was 5 of 6.
With C/C(=N\N=C(\[Se])N(C)C)c1ccccn1 the survivor count (dose: 100.0 mg/kg/injection, schedule: Q04DX003 (ip), vehicle: saline with Tween-80) was 4 of 6, the survivor count (dose: 200.0 mg/kg/injection, schedule: Q04DX003 (ip), vehicle: saline with Tween-80) was 1 of 6 and the survivor count (dose: 400.0 mg/kg/injection, schedule: Q04DX003 (ip), vehicle: saline with Tween-80) was 0 of 6.
For O=C(Nc1ccc(Cl)cc1)Nc1nnc(-c2cccc(Cl)c2)o1, the survivor count (dose: 30.0 mg/kg/injection, schedule: Q01DX005 (ip), vehicle: saline with Tween-80) was 6 of 6 (2×), the survivor count (dose: 60.0 mg/kg/injection, schedule: Q01DX005 (ip), vehicle: saline with Tween-80) was 6 of 6 and the survivor count (dose: 120.0 mg/kg/injection, schedule: Q01DX005 (ip), vehicle: saline with Tween-80) was 6 of 6.
In the case of CCOC(=O)C(C#N)(CCC(=NC(C)(C)C)Nc1ccccc1C#N)CCC(=NC(C)(C)C)Nc1ccccc1C#N (stereo not drawn), the survivor count [5] is reported as 6 of 6.
For c1cnc2c(c1)C1OC(S2)c2cccnc2S1, the survivor count [5] was 0 of 6.
c1cc(-c2cc3ccc(C4=NCCN4)cc3[nH]2)ccc1C1=NCCN1 was tested, and the T/C (dose: 12.5 mg/kg/injection, schedule: Q04DX003 (ip), vehicle: saline) was 148 % of control, the T/C (dose: 25.0 mg/kg/injection, schedule: Q04DX003 (ip), vehicle: saline) was 139 % of control and the survivor count (dose: 100.0 mg/kg/injection, schedule: Q04DX003 (ip), vehicle: saline) was 4 of 6.
C=C1C(=O)OC(C)(C)C1c1ccccc1 (stereo not drawn) was tested, and the survivor count [15] was 6 of 6.
In the case of CC(OC1OC(C(=O)O)C(O)C(O)C1O)c1ccccc1 (stereo not drawn), the survivor count (dose: 100.0 mg/kg/injection, schedule: Q01DX009 (ip), vehicle: saline sonified) is reported as 6 of 6.
For CC1OCC(Br)([N+](=O)[O-])CO1 (stereo not drawn), the T/C (dose: 6.25 mg/kg/injection, schedule: Q01DX009 (ip), vehicle: saline with Tween-80) was 130 % of control, the survivor count [2] was 6 of 6 and the survivor count [3] was 0 of 6. The survivor count [4] was 0 of 6 and the survivor count [5] was 0 of 6.
For C=C(C(=O)O)C(=O)O, the survivor count [14] was 4 of 6.
For Cn1c2ccccc2c(=O)c2c([N+](=O)[O-])ccc(NCCN)c21, the survivor count (dose: 240.0 mg/kg/injection, schedule: Q01DX005 (ip), vehicle: saline) was 0 of 6.
In the case of CC(C)N1C(=O)C2C3C=CC(C3)C2C1=O (stereo not drawn), the survivor count (dose: 100.0 mg/kg/injection, schedule: Q04DX002 (ip), vehicle: saline with Tween-80) is reported as 0 of 6.
[Cl][Ni][Cl] was tested, and the survivor count (dose: 25.0 mg/kg/injection, schedule: Q01DX009 (ip), vehicle: saline) was 5 of 6, the survivor count [12] was 0 of 6 and the survivor count [13] was 0 of 6. The survivor count [14] was 0 of 6.
CC(=O)[O][Hg][CH]1C2CC3C(C2OC(C)=O)C31 (stereo not drawn) was tested, and the survivor count [2] was 6 of 6, the survivor count [3] was 5 of 6 and the survivor count [4] was 0 of 6. For the same compound, the survivor count [5] was 0 of 6.
